1 substance from PMC4917820, “Structural basis for autoinhibition and its relief of MOB1 in the Hippo pathway” (Scientific Reports, 2016) can be followed below.

Positions count from the first letter of the chain named. These are yes or no findings as the source states them, for the method shown. Binding can be weak; no strength is given. For some of these results: Where a sequence is shown, tags or fusion partners need not be part of it.

The target in experiment [1] is T1, N-terminal truncated MOB1B (33-216) (mouse, UniProt Q8BPB0 33-216).
T1 construct: MOB1B, mouse, residues 33-216; also called N-terminal 32-residue truncated form; N-truncated MOB1B; source: E. coli, purified (Glutathione Sepharose 4B, HRV 3C digestion, HiTrap Q gradient, Superdex 75pg); not shown: GST, N-terminal, cleaved
T1 sequence (looked up): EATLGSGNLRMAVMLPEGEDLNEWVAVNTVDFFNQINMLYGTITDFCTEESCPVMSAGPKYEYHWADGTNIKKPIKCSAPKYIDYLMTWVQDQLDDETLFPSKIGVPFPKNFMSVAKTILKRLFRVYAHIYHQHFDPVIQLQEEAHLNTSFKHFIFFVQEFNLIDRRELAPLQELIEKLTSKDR
In words: AUC; sedimentation velocity, 20 °C, 19 μM protein, 20 mM Tris-HCl (pH 7.5), 0.1 M NaCl, scanned at 280 nm; both purified.

Experiment [2] deals with T2, GST-MOB1B, N-terminal 32-residue truncated form (33-216) (mouse) (UniProt Q8BPB0).
T2 sequence: T1 sequence (looked up)
In words: pull-down; GST-MOB1B and LATS1 proteins (40 μM) mixed 1:1 in 20 mM Tris-HCl (pH 7.5), 0.3 M NaCl, 1 mM DTT, applied to Glutathione Sepharose 4B, washed at 4 °C, eluted with glutathione, SDS-PAGE with Coomassie blue, band intensities; both purified.

The target in experiment [3] is T3, GST-MOB1B, wild-type full-length form (mouse) (UniProt Q8BPB0).
T3 sequence: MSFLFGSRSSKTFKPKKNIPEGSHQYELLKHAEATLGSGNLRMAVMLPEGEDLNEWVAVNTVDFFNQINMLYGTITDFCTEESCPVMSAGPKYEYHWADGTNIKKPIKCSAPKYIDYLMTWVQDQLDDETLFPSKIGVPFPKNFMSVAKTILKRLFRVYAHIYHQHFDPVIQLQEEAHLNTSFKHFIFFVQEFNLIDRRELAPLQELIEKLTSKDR
The experiment is described as above.

Experiment [4] concerns the target T4, GST-N-terminal truncated MOB1B, N-terminal 16-residue truncated form (mouse) (UniProt Q8BPB0).
T4 sequence: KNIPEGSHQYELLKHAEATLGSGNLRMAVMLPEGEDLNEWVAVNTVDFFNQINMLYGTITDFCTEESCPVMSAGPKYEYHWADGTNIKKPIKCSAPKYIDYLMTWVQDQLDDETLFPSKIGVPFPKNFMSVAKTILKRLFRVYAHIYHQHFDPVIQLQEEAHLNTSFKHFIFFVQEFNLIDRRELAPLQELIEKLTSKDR
The description is as above.

Experiment [5] addresses T5, GST-MOB1B with the single phosphomimetic substitution of Thr12 (mouse) (UniProt Q8BPB0).
T5 sequence: T3 sequence with T12D
The description is as above.

For experiment [6], the target named is T6, GST-N-terminal truncated MOB1B, N-terminal 21-residue truncated form (mouse) (UniProt Q8BPB0).
T6 sequence: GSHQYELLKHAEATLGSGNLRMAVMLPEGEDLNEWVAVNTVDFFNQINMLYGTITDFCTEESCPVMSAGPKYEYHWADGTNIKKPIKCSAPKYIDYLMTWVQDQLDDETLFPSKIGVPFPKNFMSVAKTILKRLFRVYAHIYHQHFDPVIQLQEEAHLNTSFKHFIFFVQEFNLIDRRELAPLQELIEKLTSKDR
Described as above.

For experiment [7], the target named is T7, GST-MOB1B, double-mutant T12D/T35D full-length form (mouse) (UniProt Q8BPB0).
T7 sequence: T3 sequence with T12D, T35D
The experiment is described as above.

“NTR domain of LATS1 (limits not told for this experiment) (mouse) (domain or fragment)”: the binding result in experiment [1] is on record as “binds”; in experiment [2] it was “binds”; in experiment [3] it was “binds weakly”; in experiment [4], “binds”; in experiment [5] it was “binds”; in experiment [6] it was “binds”. The binding entry in experiment [7] is given as “binds”.
